# PubChem BioAssay AID504834 (National Center for Advancing Translational Sciences (NCATS), 2011)
# About 22,000 (6.9%) of roughly 320,000 compounds were called active. The inconclusive results got no clear call from the source; some entries with a clear call stand among them for comparison. The call rests on the fitted dose curve; in most records, active means well fitted inhibition curve with a large enough effect; inconclusive means small, poorly fitted or top-dose-only effect, or another doubt; inactive means no such curve, though single readings can be large or run the other way. Potencies beside an inconclusive call are fits to weak or partial responses and may not hold up.
# Test: Primary qHTS for delayed death inhibitors of the malarial parasite plastid, 96 hour incubation
# Conditions: P. falciparum luciferase reporter growth; series mostly up to 28.7 µM; activity change, negative = inhibition: at the top concentration
# How it was run: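 Plates of compound plus infected erythrocytes (2% hematocrit, 0.05% parasitemia final) incubate 96 hours, 37 C, 5% CO2. Detection reagent added; reduced luminescence from the parasites' luciferase reporter flags inhibition.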
# On the % scale 0 is the no-effect control and ±100 the full control effect; potency means the concentration at half of the fitted maximal effect.
SMILES,Potency,"activity change, negative = inhibition"
CCC1CN(C(=O)N2CCC(C(=O)NCc3cccc(OC)c3OC)CC2)c2cc(C)ccc2O1 (stereo unspecified),"inconclusive: 11.7 µM [inhibitor, partial curve]",–
Cc1cccnc1CN1CCN(C(=O)CCc2nnc(CCc3ccccc3)o2)CC1,"inconclusive: 18.5 µM [inhibitor, single point]",–
COC(=O)c1ccc(CN(C)S(=O)(=O)c2cccs2)cc1,–,inactive: 43.5%
O=C(COC(=O)C12CC3CC(CC(Cl)(C3)C1)C2)Nc1ccc2[nH]c(=O)[nH]c2c1,"inconclusive: 10.4 µM [inhibitor, partial curve, poor fit]",–
CCCCN(C(=O)CN1C(=O)C2CCCCC2C1=O)c1c(N)n(CCCC)c(=O)[nH]c1=O (stereo unspecified),–,inactive: 6.97%
CCN1CCN(CCNC(=O)c2ccc3c(c2)N(Cc2cccc(Cl)c2)C(=O)c2ccccc2S3=O)CC1 (stereo unspecified),"inconclusive: 18.5 µM [inhibitor, single point]",–
COc1ccc(-c2ccc3c(c2)S(=O)(=O)c2cccc(C(=O)NCCOc4ccccc4)c2C3=O)cc1OC,–,inactive: -16.6%
O=C(Nc1nnc(C2CC2)s1)c1cccs1,"inconclusive: 6.57 µM [inhibitor, single point]",–
COC(=O)C1=C(C)NC(=O)/C1=C\c1ccc2c(c1)OCO2,"inconclusive: 0.0657 µM [inhibitor, full curve, poor fit]",–
O=C(Nc1cccc(Cl)c1)Nc1cc(S(=O)(=O)N2CCOCC2)ccc1N1CCCC1,–,inactive: 1.82%
Cc1ccc(-c2csc(NC(=O)C3=COCCO3)n2)cc1C,active: 6.57 µM,–
CCOC(=O)c1[nH]c(CN2CCN(c3ccc(OC)cc3)CC2)c(C(=O)OCC)c1C,active: 6.57 µM,–
CCN(CC(=O)N1CCOCC1)S(=O)(=O)c1ccccc1,–,inactive: 17.9%
Cc1ccc(-c2c(CC(=O)O)c(C)nc3sc4c(c23)CCCC4)cc1,–,inactive: 7.44%
COc1ccc(C(=O)NNC(=O)CN2CCN(c3nc(-c4ccccc4)cs3)CC2)cc1,–,inactive: 44%
Cc1cc(C(=O)N2CCN(CCc3ccccc3)CC2)no1,"inconclusive: 18.5 µM [inhibitor, single point]",–
COc1cc(C(F)(F)F)c(C(=O)N(C)Cc2ccc(Cl)c(Cl)c2)cn1,"inconclusive: 18.5 µM [inhibitor, single point]",–
O=C(NC1CCN(Cc2ccccc2)C1)c1cccc(S(=O)(=O)N2CCOCC2)c1 (stereo unspecified),–,inactive: -13.2%
COC(=O)CCC(=O)Nc1ccc(OC)cc1,"inconclusive: 18.5 µM [inhibitor, single point]",–
CCOc1ccc(N(CC(=O)N2CCCCCC2)S(=O)(=O)c2ccc(F)cc2)cc1,–,inactive: 81%
COC(=O)C1=C(c2ccc(OC)c(OC)c2)C[C@@H]2CC[C@H]1N2C(=O)N1CCCCC1,–,inactive: 6.27%
Cc1cc(OCC(=O)Nc2ccncc2)ccc1[N+](=O)[O-],–,inactive: 45.2%
C=C(C)COc1ccc(-c2nc(N)nc(C)c2-c2ccc(OC)cc2)c(O)c1,"inconclusive: 11.7 µM [inhibitor, single point]",–

# Two consecutive records from above, quoted:
SMILES,Potency,"activity change, negative = inhibition"
COC(=O)C1=C(C)NC(=O)/C1=C\c1ccc2c(c1)OCO2,"inconclusive: 0.0657 µM [inhibitor, full curve, poor fit]",–
O=C(Nc1cccc(Cl)c1)Nc1cc(S(=O)(=O)N2CCOCC2)ccc1N1CCCC1,–,inactive: 1.82%

# (continued)

SMILES,Potency,"activity change, negative = inhibition"
CC1=NN(C(C#N)c2ccc(F)cc2)C(C)(C)C1 (stereo unspecified),–,inactive: 22%
Fc1ccc(Br)cc1C1C=C(c2cccnc2)Nc2ncnn21 (stereo unspecified),–,inactive: 7.29%
CCN(CC)S(=O)(=O)c1cccc(C(=O)NCC2CCCCC2)c1,"inconclusive: 11.7 µM [inhibitor, single point]",–
COc1ccc(-c2nc[nH]c2[N+](=O)[O-])cc1,"inconclusive: 18.5 µM [inhibitor, single point]",–
Nc1nnc(CC(=O)N/N=C\c2cc([N+](=O)[O-])ccc2O)s1,active: 10.4 µM,–
COc1ccc(NS(=O)(=O)c2ccc3c(c2)N(C(C)=O)CCO3)cc1,"inconclusive: 18.5 µM [inhibitor, single point]",–
CC(NC(=O)c1noc2c1CCCC2)c1ccccc1 (stereo unspecified),"inconclusive: 13.1 µM [inhibitor, single point]",–
Oc1[nH]c2ccccc2c1N=Nc1ccccc1,–,inactive: 165%
Cc1ccccc1NCc1nc2ccccc2n1C,–,inactive: 0%
CCOc1ccc(S(=O)(=O)NCCC(=O)NC(C)CCc2ccccc2)cc1 (stereo unspecified),"inconclusive: 13.1 µM [inhibitor, partial curve]",–
CCO[C@@H]1OC(C(=O)N2CCN(Cc3ccc4c(c3)OCO4)CC2)=C[C@H](c2coc3ccccc3c2=O)[C@H]1CCCO,"inconclusive: 1.31 µM [inhibitor, partial curve, poor fit]",–
CCN(CCO)Cc1csc2ccc(Br)cc12,"inconclusive: 18.5 µM [inhibitor, single point]",–
CCOc1ccc(N2C(=O)CC(SCCN)C2=O)cc1 (stereo unspecified),–,inactive: -10.1%
O=C(NCC1CC1)[C@@H]1C[C@H]1[C@@H](NP(=O)(c1ccccc1)c1ccccc1)c1ccccc1,"inconclusive: 11.7 µM [inhibitor, partial curve, poor fit]",–
NC(=O)c1nsc(C(=O)N(c2ccccc2)C(C(=O)NCC2CCCO2)c2ccc3ncccc3c2)c1N (stereo unspecified),"inconclusive: 5.22 µM [inhibitor, partial curve]",–
O=C(CSc1nc2c(sc3ccccc32)c(=O)n1CCCN1CCCC1)NCc1ccccc1,–,inactive: 314%
CCN(CC)P(=O)(Nc1ccc(C)cc1Br)c1ccc(N(C)C)cc1NC(=O)c1ccco1 (stereo unspecified),"inconclusive: 0.329 µM [inhibitor, full curve, poor fit]",–
Cc1cc(Cl)ccc1OCC(=O)OCC(=O)NC1CCS(=O)(=O)C1 (stereo unspecified),–,inactive: -1.62%
O=[N+]([O-])c1ccc2nc(NS(=O)(=O)c3ccccc3[N+](=O)[O-])sc2c1,"inconclusive: 11.7 µM [inhibitor, partial curve]",–
COc1cc(SC)ccc1C(=O)N1CCCc2ccccc21,"inconclusive: 10.4 µM [inhibitor, single point]",–
CC1=CC(C)(C)Nc2ccc(Cc3ccc4c(c3)C(C)=CC(C)(C)N4)cc21,"inconclusive: 18.5 µM [inhibitor, single point]",–
CCOCCCNC(=O)C1CCN(c2cc(C)nc3c(-c4ccc(OC)c(OC)c4)c(C)nn23)CC1,–,inactive: -3.99%
Cc1oc(-c2ccc(Cl)cc2)nc1CN1CCC(C(=O)N2CCc3ccccc3C2)CC1,"inconclusive: 2.94 µM [inhibitor, single point]",–
